Measured values: US11447486B2, “2-amino-benzimidazole derivatives and their use as 5-lipoxygenase and/or prostaglandin E synthase inhibitors” (INSTITUT PASTEUR KOREA, priority 2014, dated 2022)
pEC50, pIC50: −log10 of the molar value. Structures were worked out from names or drawings and are uncertain.

Chains of the proteins cited; added tags and fusions are not shown.
UniProt P09917, whole entry: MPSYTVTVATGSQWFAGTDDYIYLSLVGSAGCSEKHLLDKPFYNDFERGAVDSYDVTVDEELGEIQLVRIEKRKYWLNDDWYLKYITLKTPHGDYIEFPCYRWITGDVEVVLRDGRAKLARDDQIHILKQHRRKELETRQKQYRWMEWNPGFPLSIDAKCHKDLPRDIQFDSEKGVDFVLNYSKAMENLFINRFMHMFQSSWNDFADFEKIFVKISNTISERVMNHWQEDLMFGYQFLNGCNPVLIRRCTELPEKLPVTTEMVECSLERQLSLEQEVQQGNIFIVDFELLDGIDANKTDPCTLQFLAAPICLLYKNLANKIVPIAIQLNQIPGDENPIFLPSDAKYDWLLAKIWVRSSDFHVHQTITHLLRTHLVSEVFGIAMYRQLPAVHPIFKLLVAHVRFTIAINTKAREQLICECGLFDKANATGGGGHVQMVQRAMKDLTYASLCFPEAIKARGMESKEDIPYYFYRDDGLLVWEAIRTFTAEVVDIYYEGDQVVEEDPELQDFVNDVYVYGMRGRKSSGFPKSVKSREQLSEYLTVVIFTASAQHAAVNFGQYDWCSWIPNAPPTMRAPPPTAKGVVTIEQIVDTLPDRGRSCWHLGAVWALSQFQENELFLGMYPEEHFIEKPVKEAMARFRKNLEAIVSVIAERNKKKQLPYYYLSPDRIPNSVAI

Legend:
[1] = test system: Rat basophilic leukemia (RBL) cells; experiment: LTB4 secretion assay in RBL (rat basophilic leukemia cells); conditions: read-out: RBL (EC50)
Protocol: Rat basophilic leukemia (RBL) cells (ATCC, Cat #CRL-2256) were maintained in EMEM (ATCC, Cat #30-2003) supplemented with 15% FBS. The day before RBL assay, cells were seeded at a concentration of 2×10^4 cells per well in 96-well plates. The media was replaced with 100 ul of EMEM supplemented with 0.5% FBS and compounds in dose response(5 nM to 100 uM) were added. After 15 min of pre-incubation at 37° C., arachidonic acid and calcium ionophore (A23187) were added to give a final concentration of 2.5 uM and 5 uM, respectively. After a further 10 min incubation at 37° C., culture supernatant was transferred and quantification of LTB4 was done with a Leukotriene B4 EIA kit (Cayman, Cat #520111) as instructed.

human 5-LOX = human 5-LOX (Homo sapiens, UniProt P09917); experiment: 5-LOX enzyme activity, fluorescence method (5-HPETE, H2DCFDA); conditions: read-out: 5-LO (IC50)

Row | Structure (SMILES) | pEC50 [1] | pIC50 (human 5-LOX)
1 | Cn1c(NCc2ccc(Oc3ncc(Cl)cn3)cc2)nc2ccc(N)cc21 [Compound 288] | < 4.70 | > 6.00
2 | Cn1c(NCc2ccc(Oc3ccc4c(Cl)cccc4n3)cc2)nc2ccc(N)cc21 [Compound 424] | > 5.00 | > 6.00
